Taken from: PubChem BioAssay AID743121 (NCATS, 2013)

- Test: 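Partners whose loss is lethal together with topoisomerase I blockade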 (primary screen)
- System: MDA-MB-231 cells, a human breast cancer line
- Reagent: single siRNA against human genes, 20 nM siRNA (0.8 pmol per well)
- Timing: 120 h (drug added 48 h after transfection, read 72 h later)
- Conditions: camptothecin 20 nM (about EC30) for 72 h; vehicle 0.1% DMSO in parallel plates
- Detection: 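Cell viability by ATP luminescence (CellTiter-Glo) as % of non-targeting siRNA wells, and the log2 ratio of viability without drug over viability with camptothecin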
- Reading the numbers: log2 vehicle/camptothecin viability: higher = stronger sensitisation to camptothecin; viability with camptothecin: higher = more viable cells
- Call rule: 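Active genes have an RSA gene-level p-value below 0.001, computed from the ratios of their separate siRNAs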
The deposit covers about 26,000 reagents; below is a random part of them. Over the whole deposit, 167 (0.63%) were called active. 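Calls are per gene from RSA p-values that are not deposited; an individual active-marked siRNA can sensitise only weakly.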 Reagents against one gene are numbered here. Further read-outs or replicates are left out here. Reagent sequences are not shown.

log2 vehicle/camptothecin viability | viability with camptothecin (% of control) | activity call | gene | reagent
-0.0666 | 99.7 | inactive | ACVR2A (activin A receptor type 2A) | 1
-0.23 | 98.7 | inactive | ACVR2A (activin A receptor type 2A) | 2
-0.0086 | 94.8 | inactive | ACVR2A (activin A receptor type 2A) | 3
1.08 | 1.84 | inactive | ACVR2A (activin A receptor type 2A) | 4
-0.218 | 118 | inactive | SNX9 (sorting nexin 9) | 1
-0.133 | 47.8 | inactive | SNX9 (sorting nexin 9) | 2
-0.164 | 96.9 | inactive | SNX9 (sorting nexin 9) | 3
-0.0459 | 61.4 | inactive | SNX9 (sorting nexin 9) | 4
0.119 | 35.7 | inactive | IL11RA (interleukin 11 receptor subunit alpha) | 1
-0.362 | 70.5 | inactive | IL11RA (interleukin 11 receptor subunit alpha) | 2
-0.392 | 83.7 | inactive | IL11RA (interleukin 11 receptor subunit alpha) | 3
-0.325 | 65.5 | inactive | TNFRSF1B (TNF receptor superfamily member 1B) | 1
-0.181 | 75 | inactive | TNFRSF1B (TNF receptor superfamily member 1B) | 2
-0.039 | 97.7 | inactive | TNFRSF1B (TNF receptor superfamily member 1B) | 3
0.42 | 24.6 | inactive | TNFRSF1B (TNF receptor superfamily member 1B) | 4
-0.0601 | 109 | inactive | PDLIM7 (PDZ and LIM domain 7) | 1
-0.0143 | 34.6 | inactive | PDLIM7 (PDZ and LIM domain 7) | 2
0.178 | 77 | inactive | PDLIM7 (PDZ and LIM domain 7) | 3
-0.163 | 67.5 | inactive | PDLIM7 (PDZ and LIM domain 7) | 4
-0.41 | 96.2 | inactive | MLYCD (malonyl-CoA decarboxylase) | 1
0.508 | 71.6 | inactive | MLYCD (malonyl-CoA decarboxylase) | 2
0.0619 | 44.1 | inactive | MLYCD (malonyl-CoA decarboxylase) | 3
-0.16 | 120 | inactive | MLYCD (malonyl-CoA decarboxylase) | 4
1.22 | 35.5 | inactive | PIK3CD | 1
-0.361 | 89.3 | inactive | PIK3CD | 2
-0.019 | 83.4 | inactive | PIK3CD | 3
-0.283 | 66.8 | inactive | PIK3CD | 4
-0.325 | 117 | inactive | SERPINB5 (serpin family B member 5) | 1
-0.641 | 75.5 | inactive | SERPINB5 (serpin family B member 5) | 2
-0.1 | 87.9 | inactive | SERPINB5 (serpin family B member 5) | 3
-0.246 | 105 | inactive | SERPINB5 (serpin family B member 5) | 4

Quoted from the listing, 4 entries:
log2 vehicle/camptothecin viability | viability with camptothecin (% of control) | activity call | gene | reagent
-0.283 | 66.8 | inactive | PIK3CD | 4
-0.325 | 117 | inactive | SERPINB5 (serpin family B member 5) | 1
-0.641 | 75.5 | inactive | SERPINB5 (serpin family B member 5) | 2
-0.1 | 87.9 | inactive | SERPINB5 (serpin family B member 5) | 3
